According to PMC6449397:
Results are given in words; binding and its absence hold for the method and conditions named. Binding seen in cells or lysates may run through a third protein. Here binding means that the protein was enriched with, or labelled near, the bait; the list need not be complete. For some of these results: A no says only that the protein was not detected with the bait. Where a sequence is shown, tags or fusion partners need not be part of it. Blank lines part the entries; values can stand above or below the binder they belong to.

Tests used:
[1] = biological target: T1, SMC1A-GFP (human) (UniProt Q14683); experiment: affinity purification with mass spectrometry; microcentrifuge tube-based GFP pull-down on GFP-Trap_A beads, 500 µg whole-cell extract, incubation 90 min at 4 °C in 300 mM NaCl buffer with ethidium bromide, washes with 1 M NaCl buffer; control wild-type HeLa Kyoto; label-free quantification
T1 sequence: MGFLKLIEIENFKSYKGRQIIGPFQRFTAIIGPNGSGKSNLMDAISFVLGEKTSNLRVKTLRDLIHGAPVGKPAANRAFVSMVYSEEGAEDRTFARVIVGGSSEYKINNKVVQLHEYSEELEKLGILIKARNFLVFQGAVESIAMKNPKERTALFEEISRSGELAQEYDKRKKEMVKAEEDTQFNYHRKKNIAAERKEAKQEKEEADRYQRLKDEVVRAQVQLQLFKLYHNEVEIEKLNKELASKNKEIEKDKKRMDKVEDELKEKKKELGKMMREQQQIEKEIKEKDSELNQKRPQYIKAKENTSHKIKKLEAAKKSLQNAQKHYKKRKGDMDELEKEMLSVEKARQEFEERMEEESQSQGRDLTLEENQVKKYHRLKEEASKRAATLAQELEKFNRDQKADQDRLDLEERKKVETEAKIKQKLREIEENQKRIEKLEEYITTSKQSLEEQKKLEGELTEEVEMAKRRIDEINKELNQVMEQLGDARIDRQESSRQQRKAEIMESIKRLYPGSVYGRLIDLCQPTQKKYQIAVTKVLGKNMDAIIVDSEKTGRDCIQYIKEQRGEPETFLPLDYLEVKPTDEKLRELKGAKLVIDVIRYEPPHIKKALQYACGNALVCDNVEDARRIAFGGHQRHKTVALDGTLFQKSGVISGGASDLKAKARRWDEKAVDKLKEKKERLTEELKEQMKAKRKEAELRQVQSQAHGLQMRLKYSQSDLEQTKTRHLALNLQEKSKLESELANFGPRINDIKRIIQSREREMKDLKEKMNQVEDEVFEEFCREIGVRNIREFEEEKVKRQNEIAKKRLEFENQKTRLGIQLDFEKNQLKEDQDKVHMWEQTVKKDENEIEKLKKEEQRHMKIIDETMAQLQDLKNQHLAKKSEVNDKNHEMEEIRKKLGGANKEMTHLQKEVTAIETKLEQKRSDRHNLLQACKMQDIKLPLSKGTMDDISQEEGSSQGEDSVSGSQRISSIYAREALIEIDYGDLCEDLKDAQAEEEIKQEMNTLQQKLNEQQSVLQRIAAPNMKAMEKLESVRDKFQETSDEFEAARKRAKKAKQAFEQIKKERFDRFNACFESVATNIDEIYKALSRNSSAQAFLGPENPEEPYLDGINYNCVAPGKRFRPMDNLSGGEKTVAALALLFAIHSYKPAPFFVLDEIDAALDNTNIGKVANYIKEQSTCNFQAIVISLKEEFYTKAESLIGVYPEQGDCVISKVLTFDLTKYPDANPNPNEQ

[2] = biological target: T1, SMC1A-GFP (human); experiment: affinity purification with mass spectrometry; on-chip AP-MS: microfluidic columns of Dynabeads M-270 epoxy coupled to anti-GFP nanobody Lag16-2K/R (24-reactor chip; SMC1A and CCDC93 also on the 48-reactor chip), 4 µg whole-cell extract or 12,000-25,000 cells per pull-down, loaded at 15 °C, washes with 1 M NaCl buffer and PBS, on-bead digestion; control wild-type or not induced cells; label-free quantification

binding [1]: binds
B1: WAPL (protein, UniProt Q7Z5K2 1-1190)
chain: MTSRFGKTYSRKGGNGSSKFDEVFSNKRTTLSTKWGETTFMAKLGQKRPNFKPDIQEIPKKPKVEEESTGDPFGFDSDDESLPVSSKNLAQVKCSSYSESSEAAQLEEVTSVLEANSKISHVVVEDTVVSDKCFPLEDTLLGKEKSTNRIVEDDASISSCNKLITSDKVENFHEEHEKNSHHIHKNADDSTKKPNAETTVASEIKETNDTWNSQFGKRPESPSEISPIKGSVRTGLFEWDNDFEDIRSEDCILSLDSDPLLEMKDDDFKNRLENLNEAIEEDIVQSVLRPTNCRTYCRANKTKSSQGASNFDKLMDGTSQALAKANSESSKDGLNQAKKGGVSCGTSFRGTVGRTRDYTVLHPSCLSVCNVTIQDTMERSMDEFTASTPADLGEAGRLRKKADIATSKTTTRFRPSNTKSKKDVKLEFFGFEDHETGGDEGGSGSSNYKIKYFGFDDLSESEDDEDDDCQVERKTSKKRTKTAPSPSLQPPPESNDNSQDSQSGTNNAENLDFTEDLPGVPESVKKPINKQGDKSKENTRKIFSGPKRSPTKAVYNARHWNHPDSEELPGPPVVKPQSVTVRLSSKEPNQKDDGVFKAPAPPSKVIKTVTIPTQPYQDIVTALKCRREDKELYTVVQHVKHFNDVVEFGENQEFTDDIEYLLSGLKSTQPLNTRCLSVISLATKCAMPSFRMHLRAHGMVAMVFKTLDDSQHHQNLSLCTAALMYILSRDRLNMDLDRASLDLMIRLLELEQDASSAKLLNEKDMNKIKEKIRRLCETVHNKHLDLENITTGHLAMETLLSLTSKRAGDWFKEELRLLGGLDHIVDKVKECVDHLSRDEDEEKLVASLWGAERCLRVLESVTVHNPENQSYLIAYKDSQLIVSSAKALQHCEELIQQYNRAEDSICLADSKPLPHQNVTNHVGKAVEDCMRAIIGVLLNLTNDNEWGSTKTGEQDGLIGTALNCVLQVPKYLPQEQRFDIRVLGLGLLINLVEYSARNRHCLVNMETSCSFDSSICSGEGDDSLRIGGQVHAVQALVQLFLERERAAQLAESKTDELIKDAPTTQHDKSGEWQETSGEIQWVSTEKTDGTEEKHKKEEEDEELDLNKALQHAGKHMEDCIVASYTALLLGCLCQESPINVTTVREYLPEGDFSIMTEMLKKFLSFMNLTCAVGTTGQKSISRVIEYLEHC

binding [2]: no binding
B2: HSD17B10 (protein, UniProt Q99714 1-261)
chain: MAAACRSVKGLVAVITGGASGLGLATAERLVGQGASAVLLDLPNSGGEAQAKKLGNNCVFAPADVTSEKDVQTALALAKGKFGRVDVAVNCAGIAVASKTYNLKKGQTHTLEDFQRVLDVNLMGTFNVIRLVAGEMGQNEPDQGGQRGVIINTASVAAFEGQVGQAAYSASKGGIVGMTLPIARDLAPIGIRVMTIAPGLFGTPLLTSLPEKVCNFLASQVPFPSRLGDPAEYAHLVQAIIENPFLNGEVIRLDGAIRMQP

binding [1]: binds
B3: PDS5A (protein, UniProt Q29RF7 1-1337)
chain: MDFTAQPKPATALCGVVSADGKIAYPPGVKEITDKITTDEMIKRLKMVVKTFMDMDQDSEDEKQQYLPLALHLASEFFLRNPNKDVRLLVACCLADIFRIYAPEAPYTSHDKLKDIFLFITRQLKGLEDTKSPQFNRYFYLLENLAWVKSYNICFELEDCNEIFIQLFRTLFSVINNSHNKKVQMHMLDLMSSIIMEGDGVTQELLDSILINLIPAHKNLNKQSFDLAKVLLKRTVQTIEACIANFFNQVLVLGRSSVSDLSEHVFDLIQELFAIDPHLLLSVMPQLEFKLKSNDGEERLAVVRLLAKLFGSKDSDLATQNRPLWQCFLGRFNDIHVPVRLESVKFASHCLMNHPDLAKDLTEYLKVRSHDPEEAIRHDVIVTIITAAKRDLALVNDQLLGFVRERTLDKRWRVRKEAMMGLAQLYKKYCLHGEAGKEAAEKVSWIKDKLLHIYYQNSIDDKLLVEKIFAQYLVPHNLETEERMKCLYYLYASLDPNAVKALNEMWKCQNMLRSHVRELLDLHKQPTSEANCSAMFGKLMTIAKNLPDPGKAQDFVKKFNQVLGDDEKLRSQLELLISPTCSCKQADICVREIARKLANPKQPTNPFLEMVKFLLERIAPVHIDSEAISALVKLMNKSIEGTADDEEEGVSPDTAIRSGLELLKVLSFTHPTSFHSAETYESLLQCLRMEDDKVAEAAIQIFRNTGHKIETDLPQIRSTLIPILHQKAKRGTPHQAKQAVHCIHAIFTNKEVQLAQIFEPLSRSLNADVPEQLITPLVSLGHISMLAPDQFASPMKSVVANFIVKDLLMNDRSTGEKNGKLWSPDEEVSPEVLAKVQAIKLLVRWLLGMKNNQSKSANSTLRLLSAMLVSEGDLTEQKRISKSDMSRLRLAAGSAIMKLAQEPCYHEIITPEQFQLCALVINDECYQVRQIFAQKLHKALVKLLLPLEYMAIFALCAKDPVKERRAHARQCLLKNISIRREYIKQNPMATEKLLSLLPEYVVPYMIHLLAHDPDFTRSQDVDQLRDIKECLWFMLEVLMTKNENNSHAFMKKMAENIKLTRDAQSPDESKTNEKLYTVCDVALCVINSKSALCNADSPKDPVLPMKFFTQPEKDFCNDKSYISEETRVLLLTGKPKPAGVLGAVNKPLSATGRKPYVRSTGTETGSNINVNSELNPSTGNRSREQSSEAAETGVSENEENPVRIISVTPVKNIDPVKNKEINSDQATQGNISSDRGKKRTVTAAGAENIQQKTDEKVDESGPPAPSKPRRGRRPKSESQGNATKNDDLNKPINKGRKRAAVGQESPGGLEAGNAKAPKLQDLAKKAAPAERQIDLQR

binding [1]: binds
B4: PDS5B (protein, UniProt Q9NTI5 1-1447)
chain: MAHSKTRTNDGKITYPPGVKEISDKISKEEMVRRLKMVVKTFMDMDQDSEEEKELYLNLALHLASDFFLKHPDKDVRLLVACCLADIFRIYAPEAPYTSPDKLKDIFMFITRQLKGLEDTKSPQFNRYFYLLENIAWVKSYNICFELEDSNEIFTQLYRTLFSVINNGHNQKVHMHMVDLMSSIICEGDTVSQELLDTVLVNLVPAHKNLNKQAYDLAKALLKRTAQAIEPYITNFFNQVLMLGKTSISDLSEHVFDLILELYNIDSHLLLSVLPQLEFKLKSNDNEERLQVVKLLAKMFGAKDSELASQNKPLWQCYLGRFNDIHVPIRLECVKFASHCLMNHPDLAKDLTEYLKVRSHDPEEAIRHDVIVSIVTAAKKDILLVNDHLLNFVRERTLDKRWRVRKEAMMGLAQIYKKYALQSAAGKDAAKQIAWIKDKLLHIYYQNSIDDRLLVERIFAQYMVPHNLETTERMKCLYYLYATLDLNAVKALNEMWKCQNLLRHQVKDLLDLIKQPKTDASVKAIFSKVMVITRNLPDPGKAQDFMKKFTQVLEDDEKIRKQLEVLVSPTCSCKQAEGCVREITKKLGNPKQPTNPFLEMIKFLLERIAPVHIDTESISALIKQVNKSIDGTADDEDEGVPTDQAIRAGLELLKVLSFTHPISFHSAETFESLLACLKMDDEKVAEAALQIFKNTGSKIEEDFPHIRSALLPVLHHKSKKGPPRQAKYAIHCIHAIFSSKETQFAQIFEPLHKSLDPSNLEHLITPLVTIGHIALLAPDQFAAPLKSLVATFIVKDLLMNDRLPGKKTTKLWVPDEEVSPETMVKIQAIKMMVRWLLGMKNNHSKSGTSTLRLLTTILHSDGDLTEQGKISKPDMSRLRLAAGSAIVKLAQEPCYHEIITLEQYQLCALAINDECYQVRQVFAQKLHKGLSRLRLPLEYMAICALCAKDPVKERRAHARQCLVKNINVRREYLKQHAAVSEKLLSLLPEYVVPYTIHLLAHDPDYVKVQDIEQLKDVKECLWFVLEILMAKNENNSHAFIRKMVENIKQTKDAQGPDDAKMNEKLYTVCDVAMNIIMSKSTTYSLESPKDPVLPARFFTQPDKNFSNTKNYLPPEMKSFFTPGKPKTTNVLGAVNKPLSSAGKQSQTKSSRMETVSNASSSSNPSSPGRIKGRLDSSEMDHSENEDYTMSSPLPGKKSDKRDDSDLVRSELEKPRGRKKTPVTEQEEKLGMDDLTKLVQEQKPKGSQRSRKRGHTASESDEQQWPEEKRLKEDILENEDEQNSPPKKGKRGRPPKPLGGGTPKEEPTMKTSKKGSKKKSGPPAPEEEEEEERQSGNTEQKSKSKQHRVSRRAQQRAESPESSAIESTQSTPQKGRGRPSKTPSPSQPKKNVRVGRSKQAATKENDSSEEVDVFQGSSPVDDIPQEETEEEEVSTVNVRRRSAKRERR
